# Data as given in PubChem BioAssay AID1487 (National Center for Advancing Translational Sciences (NCATS), 2009).
# The list shows a part of the results. These are further read-outs of the screen, such as a control signal, another cell line or another target. No call is given for them. The list favours compounds with an active or inconclusive main result. Words in brackets tell the shape of the fitted curve; partial curves, single points and poor fits give uncertain potencies.
# Test: qHTS Assay for Modulators of Lamin A Splicing
# Conditions: HeLa LMNA splicing GFP/RFP minigene ratio, 48 h
# Method in brief: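 Read-out is the ratio of GFP to DsRed2 object intensity, acquired by 488 nm laser-scanning cytometry on HeLa lamin A-EGFP minigene reporter cells. Compound incubation 48 hrs at 37 °C in Opti-MEM with 2% FBS; DMSO 0.5% final.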
# [1] = measured here: GFP splicing reporter channel
# [2] = measured here: RFP viability control channel
Structure (SMILES),AC50 [1],AC50 [2]
CCCC(=O)Nc1ccc(N2CCN(C(=O)CCC)CC2)cc1,"0.251 µM [falling, partial curve, poor fit]",–
COCCn1c(=O)c(-c2ccc(Cl)cc2)nc2cnc(Nc3ccccc3)nc21,"12.6 µM [falling, partial curve]","15.8 µM [falling, partial curve]"
CC[n+]1c(/C=C(/C)SC)sc2ccccc21,–,"35.5 µM [rising, single point]"
O=C(Nc1ccccc1-c1nnc(SCc2ccc(Cl)cc2Cl)o1)c1ccccc1,–,"35.5 µM [rising, single point]"
COc1ccc(CCC(=O)NCCc2csc(-c3ccc(F)cc3)n2)cc1,"1.78 µM [falling, full curve]","1.12 µM [falling, full curve, poor fit]"
CCCCN(CCCC)S(=O)(=O)c1ccc(C(=O)Nc2nnc(CSC)o2)cc1,"5.01 µM [falling, partial curve]","17.8 µM [falling, partial curve]"
CC(C)(C#CCN1CCCCC1)OCCOC(c1ccccc1)c1ccccc1,–,"12.6 µM [rising, partial curve]"
CCCCN1CNC(=S)N(c2ccccc2OCC)C1,–,"2.51 µM [rising, partial curve, poor fit]"
Cc1ccc(-n2c(-c3cnccn3)n[nH]c2=S)cc1,"8.91 µM [rising, partial curve, poor fit]",–
Cn1nnnc1SCC(=O)N(C1CCCCC1)C1CCCCC1,"22.4 µM [rising, single point]","12.6 µM [rising, single point]"
O=C(CSCc1ccc(F)cc1)N1CCN(c2ccccc2F)CC1,"35.5 µM [falling, partial curve, poor fit]","50.1 µM [falling, partial curve, poor fit]"
Cn1cccc1Cc1nnc(SCC(=O)Nc2ccc3c(c2)OCCO3)n1-c1ccc(F)cc1,–,"35.5 µM [rising, single point]"
CC1(C)O[C@H]2C[C@@H]3[C@H]4CCC5=CC(=O)C=C[C@]5(C)[C@@]4(F)[C@@H](O)C[C@]3(C)[C@]2(C(=O)CO)O1,–,"0.0501 µM [falling, full curve, poor fit]"
CCOC(=O)c1cc(C)sc1/N=C/C1=C(O)CCCC1=O,–,"3.98 µM [rising, single point]"
COc1ccc(C(=O)NC(=S)Nc2ccccc2N2CCOCC2)cc1Br,"12.6 µM [rising, single point]","28.2 µM [rising, single point]"
CCn1cc(C(=O)NCc2ccc3c(c2)OCO3)c(=O)c2cc(F)c(N3CCN(C)CC3)cc21,–,"15.8 µM [rising, single point]"
Cc1nn(Cc2ccc(Cl)cc2Cl)c(C)c1NC(=O)CCl,–,"35.5 µM [falling, single point]"
CCCn1c(SCC(=O)N2CCN(c3ccc(OC)cc3)CC2)nc2c1c(=O)n(C)c(=O)n2C,"1.58 µM [rising, partial curve, poor fit]","11.2 µM [rising, partial curve, poor fit]"
COc1ccc(CCNC(=O)COc2ncnc3ccccc23)cc1OC,"5.62 µM [falling, partial curve]","0.01 µM [falling, full curve, poor fit]"
COc1cc(C)ccc1OCCSc1nc2ccc(NC(=O)c3ccco3)cc2s1,"14.1 µM [falling, single point]","0.0224 µM [falling, full curve, poor fit]"
O=C(CN(c1ccccn1)S(=O)(=O)c1ccc(F)cc1)Nc1ccc(F)cc1F,–,"6.31 µM [falling, single point]"
COc1ccc(/C=C2\SC(=O)N(CCNC(=O)C3CCN(S(=O)(=O)c4cccs4)CC3)C2=O)cc1,–,"35.5 µM [rising, single point]"
COC(=O)CCC(=O)OC1(C)C(=O)C2=CN(Cc3ccc4c(c3)OCO4)C(c3ccc(OC)cc3)=CC2=C(Br)C1=O (stereo unspecified),"0.158 µM [falling, single point]","0.158 µM [falling, single point]"
COC(=O)c1sc(N)c(C(=O)OC)c1COC(=O)[C@@H](NS(=O)(=O)c1cccc(Cl)c1)C(C)C,–,"14.1 µM [rising, single point]"
COc1cccc(NC(=O)Cn2nnc(C(=O)NCc3cccs3)c2N)c1,–,"1.26 µM [falling, full curve]"
CCCSC1=C(C#N)C(c2ccc(OC)cc2)C2=C(CC(C)(C)CC2=O)N1 (stereo unspecified),–,"35.5 µM [rising, single point]"

# A portion from further up, as a working copy:
Structure (SMILES),AC50 [1],AC50 [2]
COCCn1c(=O)c(-c2ccc(Cl)cc2)nc2cnc(Nc3ccccc3)nc21,"12.6 µM [falling, partial curve]","15.8 µM [falling, partial curve]"
CC[n+]1c(/C=C(/C)SC)sc2ccccc21,–,"35.5 µM [rising, single point]"
O=C(Nc1ccccc1-c1nnc(SCc2ccc(Cl)cc2Cl)o1)c1ccccc1,–,"35.5 µM [rising, single point]"

# Carrying on.

Structure (SMILES),AC50 [1],AC50 [2]
CC1CCc2c(sc(NC(=O)Cn3nc(C(F)(F)F)c4c3CCCCC4)c2C#N)C1 (stereo unspecified),"15.8 µM [falling, single point]","22.4 µM [falling, single point]"
Cc1cc(C(=O)NNC(=O)Nc2cccc(C(F)(F)F)c2)no1,"2.51 µM [rising, partial curve]",–
Cc1nnc(N/N=C/c2cc([N+](=O)[O-])c(N3CCC(C)CC3)cc2N2CCC(C)CC2)n1N,"12.6 µM [rising, single point]",–
c1ccc2c(c1)CCN(C1=Nc3cccc4cccc1c34)C2,"12.6 µM [falling, partial curve, poor fit]","12.6 µM [rising, single point]"
Cc1ccc(S(=O)(=O)NNC(=O)C(=O)NNc2ccccn2)cc1,"31.6 µM [rising, single point]","35.5 µM [rising, single point]"
N/C(=N\OC(=O)c1cc(-c2ccccc2)nc2ccccc12)c1ccncc1,"35.5 µM [falling, single point]","25.1 µM [falling, single point]"
Cc1cc(C)n(-c2ccc(C(=O)Nc3cccc(S(=O)(=O)N(C)C)c3)cc2)n1,–,"3.98 µM [rising, partial curve]"
O=C(CS(=O)(=O)c1c[nH]c2ccccc12)N1CCCc2ccccc21,–,"22.4 µM [rising, partial curve, poor fit]"
CCCCC1(O)CC(C(F)(F)F)=NN1C(=O)COc1ccccc1 (stereo unspecified),–,"12.6 µM [rising, partial curve]"
Cc1ccc(S(=O)(=O)NCc2ccc(C(=O)N3CCc4ccccc4C3)cc2)cc1,"17.8 µM [rising, single point]","22.4 µM [rising, partial curve]"
CCN(CC)C(=O)Cn1c(=O)cc(C)c2c(C)nn(-c3cccc(Cl)c3C)c21,"0.0112 µM [falling, full curve]","0.0224 µM [falling, partial curve, poor fit]"
CCn1c(SCC(=O)c2[nH]c(C)c(C(C)=O)c2C)nnc1-c1cccs1,"2.51 µM [rising, partial curve]","5.62 µM [rising, partial curve]"
COc1cccc(OCC(O)CN2CCN(c3ncccn3)CC2)c1 (stereo unspecified),"10 µM [rising, single point]",–
Cc1cc(Cl)ccc1OCC(=O)NC1CCCC1,–,"12.6 µM [rising, partial curve]"
COCCCNc1c2c3c(cccc3[nH]c1=O)C(=O)c1ccccc1-2,"8.91 µM [falling, partial curve]","8.91 µM [falling, partial curve]"
COc1cc2[nH]cc(C(=O)NCCc3ccccc3)c(=O)c2cc1OC,–,"15.8 µM [rising, single point]"
O=c1cc(CSc2nnc3ccccn23)c2c(ccc3ccccc32)o1,"35.5 µM [rising, single point]",–
Cc1cc2c(cc1S(=O)(=O)CCC(=O)N1CCC(C)CC1)OCC(=O)N2,"12.6 µM [falling, single point]","35.5 µM [falling, single point]"
S=c1nc(C23CC4CC(CC(C4)C2)C3)nc2sccn12,"15.8 µM [rising, partial curve, poor fit]","15.8 µM [rising, partial curve, poor fit]"
COc1ccc(NC(=O)CN2C(=O)CCn3nc(-c4cccn4C)cc32)cc1,"0.00891 µM [falling, full curve, poor fit]","0.00501 µM [falling, full curve, poor fit]"
Cn1c(=O)cc(SCC(=O)NCCCN2CCN(c3ccc(F)cc3)CC2)c2ccccc21,–,"7.94 µM [rising, partial curve, poor fit]"
COc1ccccc1-n1nnnc1S(=O)(=O)Cc1ccc(Cl)cc1,"8.91 µM [falling, single point]","7.08 µM [falling, single point]"
CC1CCN(C(=S)c2cn(Cc3ccccc3F)c3ccccc23)CC1,"22.4 µM [rising, single point]","35.5 µM [rising, single point]"
O=C(CN1CCC(Cc2ccccc2)CC1)NC(=O)NC1CCCCC1,"4.47 µM [falling, partial curve, poor fit]",–
Cc1cc(C)n(-c2nc(Nc3ccccc3C(F)(F)F)nc(-n3nc(C)cc3C)n2)n1,–,"35.5 µM [rising, partial curve]"
C=CCn1c(O)c(N=NC(=S)Nc2ccc(OC)c(Cl)c2)c2ccccc21,"8.91 µM [rising, partial curve, poor fit]","7.94 µM [rising, partial curve]"

# A second format for part of the listing above.
Structure (SMILES)	AC50 [1]	AC50 [2]
Cc1ccc(S(=O)(=O)NNC(=O)C(=O)NNc2ccccn2)cc1	31.6 µM [rising, single point]	35.5 µM [rising, single point]
N/C(=N\OC(=O)c1cc(-c2ccccc2)nc2ccccc12)c1ccncc1	35.5 µM [falling, single point]	25.1 µM [falling, single point]
